Data source: PubChem BioAssay AID602196 (INSERM, 2012)

Test: 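Modifiers of cisplatin sensitivity in A549 cells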
Cell system: human A549 lung cancer cells
Reagents: siRNA pair against human genes
Duration: 48 h transfection before cisplatin; time from cisplatin to read-out not stated
Conditions: cisplatin at a dose killing half of control-siRNA cells; exact dose and duration not given
Detection: 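Cisplatin cell death as a shift from the 50% death seen with control siRNA; siRNAs toxic or growth-blocking alone scored 0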
Scale: two-siRNA summed score (-2 to +2): higher = both siRNAs protect from cisplatin killing; -2 means both sensitise; mean protection from cisplatin (shift in death) and protection from cisplatin (shift in death), siRNA C and protection from cisplatin (shift in death), siRNA D: higher = protection from cisplatin killing
Active means: 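siRNAs harmful alone (LDH or WST-1) get 0; others get +1 for less and -1 for more cisplatin killing; genes are active when the two siRNAs give the same sign, summing to ±2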
Calls: active = both siRNAs shift cisplatin killing the same way; inactive = no consistent shift, or siRNA harmful alone
Here is one part, drawn at random, of about 23,000 deposited reagents. 455 of them (2%) were called active. 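Active includes both protection and sensitisation; some change values fall well beyond the stated -50 to +50 range.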 The record does not give: the amount of reagent.

no.	gene	two-siRNA summed score (-2 to +2)	mean protection from cisplatin (shift in death) (%)	protection from cisplatin (shift in death), siRNA C (%)	protection from cisplatin (shift in death), siRNA D (%)	outcome
1	KRT18P55 (GeneID 284085)	1	26.5	19.3	33.7	inactive
2	LOC400786	0	7.2	12.2	2.3	inactive
3	UBASH3B (GeneID 84959)	0	10.7	14.6	6.9	inactive
4	ISL2 (GeneID 64843)	0	3	9.4	-3.4	inactive
5	RNF157 (GeneID 114804)	0	2.2	4.3	0.2	inactive
6	THEMIS2 (GeneID 9473)	0	4.7	6.2	3.2	inactive
7	LOC389212	1	21.6	19	24.2	inactive
8	LOC391730	1	15.5	17.4	13.6	inactive
9	PIP4P2 (GeneID 55529)	-1	-10.7	-25.9	4.4	inactive
10	RPL17P5 (GeneID 388132)	0	33.6	28.6	38.6	inactive
11	LOC389428	0	11.9	26.6	-2.8	inactive
12	ZWILCH (GeneID 55055)	0	-1.6	10.4	-13.6	inactive
13	LOC388334	0	-1.6	-14.1	10.9	inactive
14	TACSTD2 (GeneID 4070)	0	9.2	10.9	7.5	inactive
15	INHBE (GeneID 83729)	0	10.4	3	17.7	inactive
16	F9 (GeneID 2158)	0	-8.7	-8.2	-9.3	inactive
17	RPH3AL (GeneID 9501)	0	19.5	47.5	-8.5	inactive
18	KREMEN1 (GeneID 83999)	0	-1.1	-10.3	8.1	inactive
19	SRBD1 (GeneID 55133)	0	-1.3	-10.3	7.6	inactive
20	U2SURP (GeneID 23350)	0	2.4	-2.5	7.3	inactive
21	TSPY1 (GeneID 7258)	0	1.7	-2	5.4	inactive
22	LARP4 (GeneID 113251)	1	12.8	21.2	4.4	inactive
23	FLRT1 (GeneID 23769)	-1	-15.1	-19.1	-11.1	inactive
24	FRG1BP (GeneID 284802)	0	-7.4	-11	-3.8	inactive
25	DYNC1H1 (GeneID 1778)	0	4.9	10.3	-0.5	inactive
26	DYNLT2B (GeneID 255758)	0	-1.4	5.4	-8.1	inactive
27	ZNF358 (GeneID 140467)	0	-0.8	7.1	-8.7	inactive
28	DAZAP2 (GeneID 9802)	0	1.4	-0.5	3.4	inactive
29	NODAL (GeneID 4838)	0	11	3	19	inactive
30	DMP1 (GeneID 1758)	1	4.6	0.3	8.9	inactive
31	ZNF276 (GeneID 92822)	0	-6.5	1.9	-15	inactive
32	NFIB (GeneID 4781)	0	10.8	16.3	5.3	inactive
33	PIN1 (GeneID 5300)	0	26.7	0.3	53.1	inactive
34	TRIM31 (GeneID 11074)	0	3.4	2.5	4.3	inactive
35	NCR3 (GeneID 259197)	0	4.2	2.8	5.6	inactive
36	TRIM52 (GeneID 84851)	0	0.1	3.3	-3.2	inactive
37	FIRRE (GeneID 286467)	0	8.8	6.4	11.1	inactive
38	FAM149B1P1 (GeneID 388181)	0	10.5	11.9	9.1	inactive
39	C2CD2L (GeneID 9854)	0	12.3	9.6	15	inactive
40	PNISR (GeneID 25957)	0	6.7	4.3	9	inactive
41	GABRR1 (GeneID 2569)	0	13.9	3.1	24.6	inactive
42	LOC375133	0	-2.2	-10.4	6.1	inactive
43	LOC401119	0	1.1	9.9	-7.6	inactive
44	LOC391634	1	14.1	15.1	13	inactive
45	LOC441510	0	-0.3	7.4	-8	inactive
46	MED8 (GeneID 112950)	0	-10.1	-10.5	-9.6	inactive
47	ARAF (GeneID 369)	1	15.4	11.5	19.4	inactive
48	SLC25A52 (GeneID 147407)	0	3.8	-12.6	20.3	inactive
49	RPL12 (GeneID 6136)	0	31.7	16.4	47.1	inactive
50	DIXDC1 (GeneID 85458)	0	4.4	3.3	5.6	inactive
51	TTC12 (GeneID 54970)	0	12.8	21.4	4.1	inactive
52	ZNF781 (GeneID 163115)	0	7.9	3.4	12.4	inactive
53	MEIOB (GeneID 254528)	0	10.7	12.8	8.6	inactive
54	SDHA (GeneID 6389)	0	2.8	20.6	-15	inactive
55	SCGB3A2 (GeneID 117156)	0	2.7	5.5	0	inactive
56	LETR1 (GeneID 400456)	0	6.5	6	6.9	inactive
57	DRP2 (GeneID 1821)	1	12.4	3	21.8	inactive
